Experiment: Pharmacokinetic evaluation in monkey, single intravenous dosage
Conditions: single intravenous dosage (2 mg/kg), LC/MS/MS

AUC (total area under the plasma concentration versus time curve): 5021 ng·h/mL
SMILES: CC(C)NCC(O)COc1ccc(CC(N)=O)cc1 (stereo not shown) [ATENOLOL, reference compound]

Source: US7179819B2, “VLA-4 inhibitor compounds” (Daiichi Pharmaceutical Co., Ltd., priority 1999, dated 2007)
